No constants are given. Whether binding was seen depends on the method and setting. In cells and extracts the contact can be indirect. Some results given as binding are weak or reduced against the parent protein; the word gives no strength.
Tests used:
FOXM1 (mouse) [1] = molecular target: T1, FOXM1 (mouse) (UniProt O08696); assay: co-IP of β-catenin, Western blot
T1 sequence (looked up): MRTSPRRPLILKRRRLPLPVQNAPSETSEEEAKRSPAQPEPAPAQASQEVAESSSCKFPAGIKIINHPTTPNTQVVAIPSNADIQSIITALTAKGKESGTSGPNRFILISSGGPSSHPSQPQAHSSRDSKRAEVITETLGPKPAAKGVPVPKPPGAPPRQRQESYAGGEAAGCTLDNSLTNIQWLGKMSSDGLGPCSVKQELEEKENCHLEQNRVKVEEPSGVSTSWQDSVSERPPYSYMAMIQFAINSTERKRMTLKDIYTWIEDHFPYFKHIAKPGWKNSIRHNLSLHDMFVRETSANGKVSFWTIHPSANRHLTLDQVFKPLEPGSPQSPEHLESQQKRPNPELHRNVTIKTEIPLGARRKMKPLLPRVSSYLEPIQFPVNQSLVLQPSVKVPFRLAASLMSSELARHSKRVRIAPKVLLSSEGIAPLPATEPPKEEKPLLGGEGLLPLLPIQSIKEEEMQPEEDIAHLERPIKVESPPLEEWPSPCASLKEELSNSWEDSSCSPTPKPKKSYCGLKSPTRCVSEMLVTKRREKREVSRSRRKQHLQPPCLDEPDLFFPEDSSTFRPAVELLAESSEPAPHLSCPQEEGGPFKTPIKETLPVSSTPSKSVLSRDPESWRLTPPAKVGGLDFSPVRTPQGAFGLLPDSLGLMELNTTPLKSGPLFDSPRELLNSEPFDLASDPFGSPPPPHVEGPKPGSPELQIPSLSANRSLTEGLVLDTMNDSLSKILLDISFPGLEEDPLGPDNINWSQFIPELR

Sequences of proteins named here, by UniProt entry; tags and fusion partners are left off. Residues count along the entry.
UniProt Q02248, residues 2-781: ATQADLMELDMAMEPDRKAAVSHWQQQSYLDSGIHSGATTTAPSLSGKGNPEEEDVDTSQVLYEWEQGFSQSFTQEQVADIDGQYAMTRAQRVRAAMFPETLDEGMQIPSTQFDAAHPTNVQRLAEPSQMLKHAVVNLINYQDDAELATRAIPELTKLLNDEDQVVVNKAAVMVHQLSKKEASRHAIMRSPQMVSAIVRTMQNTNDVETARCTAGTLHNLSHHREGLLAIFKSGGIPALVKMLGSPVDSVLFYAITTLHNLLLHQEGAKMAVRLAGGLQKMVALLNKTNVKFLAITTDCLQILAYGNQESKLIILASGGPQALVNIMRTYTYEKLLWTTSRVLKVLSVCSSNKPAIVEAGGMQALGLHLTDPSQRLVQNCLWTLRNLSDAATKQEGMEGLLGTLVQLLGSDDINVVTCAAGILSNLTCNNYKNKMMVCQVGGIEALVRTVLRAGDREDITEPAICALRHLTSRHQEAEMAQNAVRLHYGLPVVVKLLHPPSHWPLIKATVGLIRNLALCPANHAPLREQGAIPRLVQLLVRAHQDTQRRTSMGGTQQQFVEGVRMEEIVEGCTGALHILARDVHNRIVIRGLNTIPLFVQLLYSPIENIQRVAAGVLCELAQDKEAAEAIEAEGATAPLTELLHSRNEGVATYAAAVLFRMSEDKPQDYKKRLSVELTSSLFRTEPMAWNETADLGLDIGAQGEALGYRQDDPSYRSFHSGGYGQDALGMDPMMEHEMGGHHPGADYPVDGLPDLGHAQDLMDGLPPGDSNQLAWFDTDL

FOXM1 (mouse) [2] = molecular target: T1, FOXM1 (mouse); assay: co-IP of β-catenin from GT1-7 cell lysates, Western blot for FOXM1 (FIG. 3E); less FOXM1 pulled down in thiostrepton-treated cells

β-catenin (from UniProt Q02248 2-781) was tested, and the binding (FOXM1 (mouse) [1]) was “binds” and the binding (FOXM1 (mouse) [2]) was “binds”.

— US20190167756A1 (CITY OF HOPE, published 2019)
